From article PMC5227109
Results are given in words; binding and its absence hold for the method and conditions named. Some entries that bind do so weakly or less than the wild type.

What was measured:
[1] = target: T1, S. cerevisiae Scc2, recombinant (the Scc2 chain of m2) (S. cerevisiae) (UniProt Q04002); test: co-purification; Scc2 (C-terminal double Strep-tag II) and Scc4 co-expressed in High 5 cells; Strep-Tactin, Poros HQ50 anion exchange, Superdex 200 SEC; final buffer 10 mM imidazole pH 7, 300 mM NaCl, 0.5 mM TCEP
T1 sequence: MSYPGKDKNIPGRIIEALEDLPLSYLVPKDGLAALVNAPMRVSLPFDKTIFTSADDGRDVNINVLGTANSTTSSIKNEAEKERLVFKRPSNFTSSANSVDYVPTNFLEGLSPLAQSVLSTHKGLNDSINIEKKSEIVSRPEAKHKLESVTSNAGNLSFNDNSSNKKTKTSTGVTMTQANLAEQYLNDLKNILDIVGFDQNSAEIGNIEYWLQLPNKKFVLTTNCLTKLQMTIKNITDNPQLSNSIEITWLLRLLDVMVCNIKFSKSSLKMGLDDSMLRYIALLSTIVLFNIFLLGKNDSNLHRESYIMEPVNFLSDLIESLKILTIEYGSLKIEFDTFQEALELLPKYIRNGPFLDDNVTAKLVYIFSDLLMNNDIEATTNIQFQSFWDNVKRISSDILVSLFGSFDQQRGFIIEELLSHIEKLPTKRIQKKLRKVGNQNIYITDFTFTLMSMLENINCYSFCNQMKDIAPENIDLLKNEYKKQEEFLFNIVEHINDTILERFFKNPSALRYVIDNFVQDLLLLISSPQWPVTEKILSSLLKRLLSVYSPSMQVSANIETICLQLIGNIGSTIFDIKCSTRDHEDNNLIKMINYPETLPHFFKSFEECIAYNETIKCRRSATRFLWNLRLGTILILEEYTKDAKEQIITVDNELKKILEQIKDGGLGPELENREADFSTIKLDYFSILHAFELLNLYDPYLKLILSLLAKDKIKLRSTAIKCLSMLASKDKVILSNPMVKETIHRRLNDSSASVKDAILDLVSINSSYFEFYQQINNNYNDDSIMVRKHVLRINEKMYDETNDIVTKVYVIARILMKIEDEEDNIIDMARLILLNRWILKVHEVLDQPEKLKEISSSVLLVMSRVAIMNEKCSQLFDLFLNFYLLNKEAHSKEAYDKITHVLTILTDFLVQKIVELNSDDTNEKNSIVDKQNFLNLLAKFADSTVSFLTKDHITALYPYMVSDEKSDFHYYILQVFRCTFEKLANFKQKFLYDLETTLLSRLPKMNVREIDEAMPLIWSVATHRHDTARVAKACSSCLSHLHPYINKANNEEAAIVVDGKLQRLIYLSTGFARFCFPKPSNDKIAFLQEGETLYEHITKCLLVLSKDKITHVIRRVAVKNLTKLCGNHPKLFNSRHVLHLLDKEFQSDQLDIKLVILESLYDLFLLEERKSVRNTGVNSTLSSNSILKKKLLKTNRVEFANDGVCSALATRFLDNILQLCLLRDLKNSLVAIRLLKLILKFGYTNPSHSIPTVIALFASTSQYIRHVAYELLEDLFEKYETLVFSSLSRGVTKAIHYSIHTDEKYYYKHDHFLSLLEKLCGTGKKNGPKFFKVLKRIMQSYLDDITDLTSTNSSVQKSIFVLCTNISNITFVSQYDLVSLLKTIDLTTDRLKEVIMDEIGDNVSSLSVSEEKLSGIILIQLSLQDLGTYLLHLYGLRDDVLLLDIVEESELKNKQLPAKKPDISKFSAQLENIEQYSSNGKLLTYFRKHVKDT

[2] = target: T1, S. cerevisiae Scc2, recombinant (the Scc2 chain of m2) (S. cerevisiae); test: cross-linking; XL-MS: 0.4 μM cohesin, 0.8 μM full-length Scc2–Scc4 and 0.8 μM 56-bp dsDNA in 20 mM HEPES pH 7.5, 50 mM NaCl, 5 mM DTT, 5 mM MgCl2, 1 mM ATP, 10% glycerol; 5–8 mM d0/d12 DSS, 28 °C 40 min; xQuest/xProphet, FDR 1%; both purified

B1: S. cerevisiae Scc4, recombinant (the Scc4 chain of m2) (protein, UniProt P40090 1-624)
chain: MENLGDKLSISQVYHLAQEYRDHAYSIANKIGSEEGLKQYYGLMNMSIQMFQLLKTKCTLSVLEDSKVTFEMVELLIQETYNFDLAELYISSLKERLQTHQSDTDLVEEIMRCEFLLLHDLPLMRDSKFHYKIALRNCNELVQYMVNLQDELYQNWASVFQYVGVMLCIKLKQHRRVKTSFHGLLSQCREKSQWKWFLNLCYVNYLLNERFPIPEDALQELRSTELHTVGPELYAWKLALEMVIQLCKDGNITDHLNEFKNFFDTNKQSLVTNEGKGCVIKIMPRIALKVELPMIFHYKELKNILLLLQSVSYIVNCYDEKGNFSRKFLPKVYSTTQKLIKNIAAGGVSMNELDSRIQTYKSILEFCEFYKVWEQTLLKGAVVTTESPKLGPSPGYVRLLQAMKVQFEGGGAVEEYTRLAQSGGTSSEVKMISLLNCYTVQAARVSRCSGDKQGELVEQCNKVWLQVEKLLQETDLQFNPIWECTVTILWLFSHFEPFSWNPLPCSDKQRAEYVSKLREFYSSNKFVAGEAVADNRFKLKKALLLQILVNYLGGRMLEHDLGEIYAISAKCFDMCRQQGGMRKVQYVIGIWHLMNCTVAMRGKDVALTNAKLEALVKQITSVKQ
- binding [1]: binds
- binding [2]: binds
